Source: patent publication US20150337021A1
Results are given in words; binding and its absence hold for the method and conditions named. Some results given as binding are weak or reduced against the parent protein; the word gives no strength. Tags and fused reporters may be left off the sequences shown.

Chains of the proteins cited; added tags and fusions are not shown. Lines headed by an entry give the natural chain unless they say otherwise; changes in a name come on top.
UniProt O75197: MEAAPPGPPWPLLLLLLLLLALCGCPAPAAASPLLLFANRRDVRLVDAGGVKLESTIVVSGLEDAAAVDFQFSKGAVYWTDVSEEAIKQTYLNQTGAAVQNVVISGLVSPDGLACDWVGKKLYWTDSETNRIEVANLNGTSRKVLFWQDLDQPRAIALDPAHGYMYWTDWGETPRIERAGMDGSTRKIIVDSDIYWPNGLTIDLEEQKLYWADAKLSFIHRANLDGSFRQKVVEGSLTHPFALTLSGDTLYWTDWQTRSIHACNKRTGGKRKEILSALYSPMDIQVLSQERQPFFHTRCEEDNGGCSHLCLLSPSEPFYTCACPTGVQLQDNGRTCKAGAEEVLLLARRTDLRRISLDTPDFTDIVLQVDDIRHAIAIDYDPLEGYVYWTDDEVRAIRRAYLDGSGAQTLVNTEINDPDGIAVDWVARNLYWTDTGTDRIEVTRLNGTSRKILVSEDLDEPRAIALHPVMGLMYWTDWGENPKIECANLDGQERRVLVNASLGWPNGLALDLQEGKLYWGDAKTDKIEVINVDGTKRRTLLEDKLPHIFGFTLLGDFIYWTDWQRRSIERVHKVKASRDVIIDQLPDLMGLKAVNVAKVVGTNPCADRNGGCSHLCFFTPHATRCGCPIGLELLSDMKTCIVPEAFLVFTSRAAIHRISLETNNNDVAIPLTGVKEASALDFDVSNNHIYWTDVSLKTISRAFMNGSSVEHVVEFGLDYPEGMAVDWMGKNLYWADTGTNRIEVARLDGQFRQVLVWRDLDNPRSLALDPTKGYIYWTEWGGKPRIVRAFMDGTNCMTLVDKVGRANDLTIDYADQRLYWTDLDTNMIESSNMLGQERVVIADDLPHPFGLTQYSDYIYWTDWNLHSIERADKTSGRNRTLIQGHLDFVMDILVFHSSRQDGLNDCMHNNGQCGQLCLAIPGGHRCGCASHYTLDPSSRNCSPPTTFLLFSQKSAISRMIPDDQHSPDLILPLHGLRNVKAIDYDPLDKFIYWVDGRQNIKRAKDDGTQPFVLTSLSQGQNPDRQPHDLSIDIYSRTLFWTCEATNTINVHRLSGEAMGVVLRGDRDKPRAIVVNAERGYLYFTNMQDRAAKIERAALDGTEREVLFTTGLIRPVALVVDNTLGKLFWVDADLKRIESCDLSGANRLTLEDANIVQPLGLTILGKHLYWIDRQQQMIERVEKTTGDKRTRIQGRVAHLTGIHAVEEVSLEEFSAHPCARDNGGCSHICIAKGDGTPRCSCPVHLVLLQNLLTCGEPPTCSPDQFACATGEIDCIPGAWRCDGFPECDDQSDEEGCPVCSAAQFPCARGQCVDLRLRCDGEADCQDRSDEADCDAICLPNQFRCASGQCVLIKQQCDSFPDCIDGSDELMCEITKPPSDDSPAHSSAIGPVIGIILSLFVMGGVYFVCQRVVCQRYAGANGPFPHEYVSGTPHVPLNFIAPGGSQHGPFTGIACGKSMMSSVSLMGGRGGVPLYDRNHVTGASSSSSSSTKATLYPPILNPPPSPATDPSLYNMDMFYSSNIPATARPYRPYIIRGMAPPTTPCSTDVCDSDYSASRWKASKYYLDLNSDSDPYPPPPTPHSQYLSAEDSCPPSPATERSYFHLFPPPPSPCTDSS
UniProt O75581: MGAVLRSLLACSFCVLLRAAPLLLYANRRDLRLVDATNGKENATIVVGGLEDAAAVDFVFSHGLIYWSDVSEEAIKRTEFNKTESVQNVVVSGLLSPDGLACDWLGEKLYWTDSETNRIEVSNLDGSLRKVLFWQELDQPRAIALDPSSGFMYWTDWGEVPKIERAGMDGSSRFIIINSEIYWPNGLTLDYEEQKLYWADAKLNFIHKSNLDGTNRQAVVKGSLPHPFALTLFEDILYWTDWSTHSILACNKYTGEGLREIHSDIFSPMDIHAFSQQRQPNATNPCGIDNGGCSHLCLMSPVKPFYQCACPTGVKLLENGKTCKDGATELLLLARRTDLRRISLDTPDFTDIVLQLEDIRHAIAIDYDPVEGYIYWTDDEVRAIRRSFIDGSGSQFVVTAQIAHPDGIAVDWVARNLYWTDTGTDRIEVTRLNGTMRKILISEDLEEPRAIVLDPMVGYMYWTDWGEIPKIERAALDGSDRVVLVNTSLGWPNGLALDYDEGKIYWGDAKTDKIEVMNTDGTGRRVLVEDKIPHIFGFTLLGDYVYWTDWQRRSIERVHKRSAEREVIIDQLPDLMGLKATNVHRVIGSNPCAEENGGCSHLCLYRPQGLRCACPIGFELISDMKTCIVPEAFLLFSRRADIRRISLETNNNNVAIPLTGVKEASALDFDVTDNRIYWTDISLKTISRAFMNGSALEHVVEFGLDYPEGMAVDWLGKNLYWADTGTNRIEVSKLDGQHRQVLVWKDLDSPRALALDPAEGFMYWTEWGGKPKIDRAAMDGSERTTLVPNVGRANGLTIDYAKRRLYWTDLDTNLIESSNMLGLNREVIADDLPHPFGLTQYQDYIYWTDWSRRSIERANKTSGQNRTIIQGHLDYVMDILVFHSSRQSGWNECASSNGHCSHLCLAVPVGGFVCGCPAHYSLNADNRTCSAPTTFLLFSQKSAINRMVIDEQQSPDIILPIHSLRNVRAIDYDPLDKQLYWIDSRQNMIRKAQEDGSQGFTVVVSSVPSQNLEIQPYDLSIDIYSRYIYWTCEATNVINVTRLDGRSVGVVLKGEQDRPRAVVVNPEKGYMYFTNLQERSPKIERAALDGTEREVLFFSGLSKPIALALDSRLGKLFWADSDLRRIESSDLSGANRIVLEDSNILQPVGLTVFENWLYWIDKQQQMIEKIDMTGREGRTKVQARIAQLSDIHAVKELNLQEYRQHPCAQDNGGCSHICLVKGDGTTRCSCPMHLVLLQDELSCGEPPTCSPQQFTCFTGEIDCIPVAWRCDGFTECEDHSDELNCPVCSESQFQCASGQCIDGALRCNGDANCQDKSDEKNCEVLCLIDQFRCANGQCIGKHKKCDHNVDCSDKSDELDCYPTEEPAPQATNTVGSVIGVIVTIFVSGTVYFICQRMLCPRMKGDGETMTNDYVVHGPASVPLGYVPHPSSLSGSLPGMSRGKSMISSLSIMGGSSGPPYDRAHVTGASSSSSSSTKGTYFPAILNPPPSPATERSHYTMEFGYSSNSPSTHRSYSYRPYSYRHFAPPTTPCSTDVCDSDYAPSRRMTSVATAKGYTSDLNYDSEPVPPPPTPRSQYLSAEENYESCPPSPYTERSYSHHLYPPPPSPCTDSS

Key:
[1] = biological target: LRP5 (WNT co-receptor, transgenically expressed on HEK293 cells) (Homo sapiens (Human)) (UniProt O75197); assay: fluorescence microscopy; medium (4° C.) with DKK1-GFP on HEK293 cells expressing LRP5
[2] = biological target: LRP6 (WNT co-receptor, transgenically expressed on HEK293 cells) (Homo sapiens (Human)) (UniProt O75581); assay: fluorescence microscopy; medium (4° C.) with DKK1-GFP on HEK293 cells expressing LRP6
[3] = biological target: LRP5 (WNT co-receptor, transgenically expressed on HEK293 cells) (Homo sapiens (Human)) (UniProt O75197); assay: fluorescence microscopy; conditioned medium with DKK1-GFP on HEK293 cells overexpressing LRP5
[4] = biological target: LRP6 (WNT co-receptor, transgenically expressed on HEK293 cells) (Homo sapiens (Human)) (UniProt O75581); assay: fluorescence microscopy; conditioned medium with DKK1-GFP on HEK293 cells overexpressing LRP6

Measured: binding

B1: soluble DKK1-GFP fusion protein (ligand, not shown: large carriers)
chain: TLNSVLINSNAIKNLPPPLGGAGGQPGSAVSVAPGVLYEGGNKYQTLDNYQPYPCAEDEECGSDEYCSSPSRGAAGVGGVQICLACRKRRKRCMRHAMCCPGNYCKNGICMPSDHSHFPRGEIEESIIENLGNDHNAAAGDGYPRRTTLTSKIYHTKGQEGSVCLRSSDCAAGLCCARHFWSKICKPVLKEGQVCTKHKRKGSHGLEIFQRCYCGEGLACRIQKDHHQASNSSRLHTCQRH
binds: all assays above
